Experimental data: publication PMC9394307, “Discovery of Putative Dual Inhibitor of Tubulin and EGFR by Phenotypic Approach on LASSBio-1586 Homologs” (Pharmaceuticals, 2022)

Legend:
Assay type in all cases: cell-based, human
PC-9 = test: MTT cell viability assay, PC-9; details: for SI Lymphocyte/ PC-9: 48 hours, MTT; for SI GM16000/ PC-9: 72 h, ratio of CC50 values
Protocol: (§1) The cytotoxic activity of compounds 3–13 was determined based on an MTT assay against different human tumor cell lines, using LASSBio-1586 (2), LASSBio-1735 (3), CA-4 (1) and pelitinib as standards (Table 2). To determine the cytotoxic selectivity index, compounds were also evaluated toward human lymphocytes (Table 3).
(§2) The target compounds were tested (0.0001–100 µM) for cytotoxic activity against selected human cancer cell lines, such as HL-60 (acute promyelocytic leukemia), MCF-7 (mammary adenocarcinoma), PC-3 (prostate adenocarcinoma), H1975 (non-small cell lung cancer—EGFR^L858R+T790M), PC-9 (non-small cell lung cancer—EGFR^L858R) H292 (mucoepidermoid pulmonary carcinoma—EGFR wild type), LoVo (colorectal adenocarcinoma—EGFRwild type) and GM16000 (lymphocyte). All the human cancer cell lines were purchased from Cell Bank of Rio de Janeiro—BCRJ. They were cultured in RPMI 1640 medium with 10% (v/v) FBS, 2 mM glutamine, at 37 °C in a humidified incubator containing 5% CO2.
(§3) The cytotoxicity of the compounds was evaluated by the MTT assay. […] For lymphocytic lines, a density of 0.3 × 10^6 cells/mL was used. Afterwards they were treated with varying concentrations of the target compounds 2–12 (0.0001–100 µM), CA-4 (1) and pelitinib at 37 °C, in triplicate. The medium was incubated with 20 μL of 5 mg/mL MTT solution for 3 h in a humidified incubator containing 5% CO2 [11].
(§4) The purple-colored formazan crystals formed in the wells were dissolved in DMSO and their absorbance was measured at 595 nm with a microplate reader (SpectraMax M5, Molecular Devices).

MCF-7 = test: MTT cell viability assay, MCF-7; details: 72 h; ratio of CC50 values
Protocol: as §1, §2
(§5) The cytotoxicity of the compounds was evaluated by the MTT assay. The cell lines were cultured in 96 well plates for 72 h with a density of 0.1 × 10^5 cells/mL to 0.7 × 10^5 cells/mL to adherent cell lines. For lymphocytic lines, a density of 0.3 × 10^6 cells/mL was used. Afterwards they were treated with varying concentrations of the target compounds 2–12 (0.0001–100 µM), CA-4 (1) and pelitinib at 37 °C, in triplicate. The medium was incubated with 20 μL of 5 mg/mL MTT solution for 3 h in a humidified incubator containing 5% CO2 [11].
as §4

LoVo = test: MTT cell viability assay, LoVo; details: for SI Lymphocyte/ LoVo: 48 hours, MTT; for SI GM16000/ LoVo: 72 h, ratio of CC50 values
Protocol: as §1, §2, §5, §4

H1975 = test: MTT cell viability assay, H1975; details: for SI Lymphocyte/ H1975: 48 hours, MTT; for SI GM16000/ H1975: 72 h, ratio of CC50 values
Protocol: as §1, §2, §3, §4

PC-3 = test: MTT cell viability assay, PC-3; details: 72 h; ratio of CC50 values
Protocol: as §1, §2, §5, §4

H292 = test: MTT cell viability assay, H292; details: for SI Lymphocyte/ H292: 48 hours, MTT; for SI GM16000/ H292: 72 h, ratio of CC50 values
Protocol: as §1, §2, §3, §4

HL-60 = test: MTT cell viability assay, HL-60; details: for SI Lymphocyte/ HL-60: 48 hours, MTT; for SI GM16000/ HL-60: 72 h, ratio of CC50 values
Protocol: as §1, §2, §3, §4

Structure (SMILES) | SI Lymphocyte/ PC-9 (PC-9) | SI GM16000/ PC-9 (PC-9) | SI GM16000/ MCF-7 (MCF-7) | SI Lymphocyte/ LoVo (LoVo) | SI GM16000/ LoVo (LoVo) | SI Lymphocyte/ H1975 (H1975) | SI GM16000/ H1975 (H1975) | SI GM16000/ PC-3 (PC-3) | SI Lymphocyte/ H292 (H292) | SI GM16000/ H292 (H292) | SI Lymphocyte/ HL-60 (HL-60) | SI GM16000/ HL-60 (HL-60) | SI GM16000/ LoVo (LoVo; listed as 2)
CCOc1cc2ncc(C#N)c(Nc3ccc(F)c(Cl)c3)c2cc1NC(=O)/C=C/CN(C)C [Pelitinib, reference compound] | 2.8 | 46.5 | 0.7 | 0.5 | 74.3 | 0.3 | 5.4 | 1.1 | 2.0 | 35.3 | 0.3 | 1.3 | 
C#CCN(/N=C/c1ccccc1)C(=O)c1cc(OC)c(OC)c(OC)c1 [LASSBio-2072 (9), (E)-N’-benzylidene-3,4,5-trimethoxy-N-(prop-2-yn-1-yl)benzohydrazide] | 0.07 | 1.3 | 0.3 | 0.03 | 1.5 | 0.02 | 0.2 | 0.3 | 0.2 | 0.2 | 0.02 | 4.0 | 
CCCN(/N=C/c1ccccc1)C(=O)c1cc(OC)c(OC)c(OC)c1 [LASSBio-2118 (5), (E)-N’-benzylidene-3,4,5-trimethoxy-N-propylbenzohydrazide] | 7.6 | 6.2 | 5.9 | 2.7 | 27.2 | 2.2 | 1.1 | 1.9 | 11.0 | 0.2 | 1.4 | 2.8 | 
COc1cc(C(=O)N/N=C/c2ccccc2)cc(OC)c1OC [LASSBio-1586 (2), (E)-N’-benzylidene-3,4,5-trimetoxybenzohydrazide] | 1.0 | 2.6 | 0.2 | 0.5 | 39.0 | 0.45 | 1.0 | 0.9 | 0.4 | 1.0 | 0.3 | 0.7 | 39
CCN(/N=C/c1ccccc1)C(=O)c1cc(OC)c(OC)c(OC)c1 [LASSBio-2071 (4), (E)-N’-benzylidene-N-ethyl-3,4,5-trimethoxybenzohydrazide] | 0.06 | 13.3 | 4.1 | 0.02 | 17.0 |  | 1.0 | 3.0 | 0.2 | 2.0 |  | 22.2 | 
